The other results are listed elsewhere or left out. The main result of the screen is listed elsewhere. These columns were measured beside it and carry no call. Compounds called inactive in the main read-out are mostly missing here. The note in brackets gives the kind of curve behind each potency; many fits are weak.
Experiment: qHTS Assay for Lipid Storage Modulators in Drosophila S3 Cells;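 for cell number change: cells counted by Cell Tracker Red CMTPX staining in the red channel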
Conditions: BODIPY lipid droplet fluorescence, 18-24 h; for cell number change: measured here: cell count max response, cells fed with added oleic acid
Procedure, shortened: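 Drosophila S3 cells loaded with oleic acid (400 uM, as added) and compounds at several concentrations; lipid droplets imaged by 488-nm laser-scanning cytometry, 500–530 nm intensity and object ratio to cell channel. Percent activity normalized to 20 uM Triacsin C.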

[1] = measured here: lipid fluorescence (Fed channel) AC50, cells fed with added oleic acid
[2] = measured here: cell number channel AC50, cells fed with added oleic acid

Row | Compound | cell number change | AC50 [1] | AC50 [2]
1 | Cc1ccc(N=Nc2c(N)nn3c(C)cc(C)nc23)cc1 | -9.2% | 0.651 µM [rising, full curve] | –
2 | COC(=O)c1ccc2c(=O)[nH]c(CSc3nc(C)cs3)nc2c1 | 41% | 18.4 µM [rising, single point] | 29.1 µM [rising, single point]
3 | CC(=O)c1ccccc1OCCn1nc(C(=O)O)c2ccccc2c1=O | 30.3% | – | 0.00517 µM [rising, full curve, poor fit]
4 | O=C(CCCn1ncn2c(cc3occc32)c1=O)NCc1cccc(Cl)c1 | 1.89% | 0.651 µM [rising, partial curve, poor fit] | 0.82 µM [rising, full curve, poor fit]
5 | CC(C)C(=O)Nc1ccc(NC(=O)c2cc3ccccc3o2)cc1 | 87.3% | 9.2 µM [rising, partial curve] | 5.17 µM [rising, partial curve, poor fit]
6 | Cc1cc(OCC(=O)Nc2ccccc2C)no1 | -3.62% | 0.0291 µM [falling, full curve, poor fit] | –
7 | COc1ccc(S(=O)(=O)N2CCN(CC(=O)Nc3sccc3C(N)=O)CC2)cc1OC | -5.33% | 23.1 µM [falling, single point] | –
8 | Cc1cccc(CSc2ccc3nnc(-c4cccnc4)n3n2)c1 | 8.08% | 0.517 µM [rising, partial curve, poor fit] | –
9 | Cc1ccc(-c2csc(NC(=O)CN3CCOCC3)n2)cc1 | 10.5% | 6.31 µM [falling, partial curve, poor fit] | –
10 | NC(N)=Nc1nc2ccc([N+](=O)[O-])cc2[nH]1 | -29.8% | 29.1 µM [falling, single point] | –
11 | Cc1c(NC(=O)c2cc(-c3cccc(Cl)c3)on2)c(=O)n(-c2ccccc2)n1C | 10% | 0.651 µM [rising, full curve, poor fit] | –
12 | O=C(NCN1CCCCC1)c1cnccn1 | -112% | 20.6 µM [falling, partial curve] | 18.4 µM [falling, partial curve]
13 | CCn1c(=Nc2ccc(N3CCOCC3)cc2)ccc2ccccc21 | – | 0.411 µM [falling, single point] | –
14 | O=C(OCc1nnc(-c2ccc([N+](=O)[O-])cc2)o1)C1CC(=O)N(CCc2ccccc2)C1 (stereo not given) | -0.139% | 29.1 µM [rising, single point] | –
15 | CSc1cc(-c2ccncc2)nc(-c2ccc(Cl)cc2)c1 | 21.2% | 2.91 µM [rising, full curve, poor fit] | –
16 | CCOc1ccccc1N(CC(=O)Nc1ccc(OC)cc1OC)S(=O)(=O)c1ccccc1 | 14.8% | – | –
17 | CCOc1ccc(NC(=O)C(CC)NC(=O)c2ccccc2CO)cc1 (stereo not given) | -63.3% | – | 29.1 µM [falling, single point]
18 | CCOC(=O)c1c(-c2ccc3ccccc3c2)csc1NC(=O)CCCC(=O)O | -32.4% | – | 0.651 µM [falling, full curve, poor fit]
19 | CCOc1cc(N(CC)CC)ccc1/C=C(/C#N)c1nc2ccccc2[nH]1 | -93.8% | 0.259 µM [falling, full curve] | 2.59 µM [falling, partial curve]

An excerpt taken from the entries so far:
Row | Compound | cell number change | AC50 [1] | AC50 [2]
15 | CSc1cc(-c2ccncc2)nc(-c2ccc(Cl)cc2)c1 | 21.2% | 2.91 µM [rising, full curve, poor fit] | –
16 | CCOc1ccccc1N(CC(=O)Nc1ccc(OC)cc1OC)S(=O)(=O)c1ccccc1 | 14.8% | – | –

Next part

Row | Compound | cell number change | AC50 [1] | AC50 [2]
20 | Cc1cccc(NC(=S)NC2CC3CCC(C2)N3Cc2ccco2)c1 (stereo not given) | -21.7% | – | 0.0731 µM [falling, full curve, poor fit]
21 | Cc1cc(C)cc(N(CCC#N)C(=O)COC(=O)CCc2c[nH]c3ccccc23)c1 | -9.33% | – | –
22 | COCCCNC(=O)/C=C/c1cccc(Cl)c1 | -76.7% | – | 29.1 µM [falling, single point]
23 | COc1ccc(-c2nnc(SC(C)C(=O)NCc3ccc4c(c3)OCO4)n2Cc2ccco2)cc1 (stereo not given) | 63.3% | 10.3 µM [rising, partial curve, poor fit] | 6.51 µM [rising, partial curve]
24 | COc1ccc(-c2nn(-c3ccccc3)cc2C(=O)N2c3ccc(C)cc3C3CN(C)CCC32)cc1 (stereo not given) | 56% | 18.4 µM [rising, partial curve, poor fit] | –
25 | Cn1c(CCN2CCN(c3ccccn3)CC2)nc2cc(NC(=O)COc3ccc(Cl)cc3)ccc21 | 20.2% | 1.3 µM [rising, full curve] | 2.59 µM [rising, partial curve]
26 | COc1ccccc1C(=O)OCC(=O)N1CCC(Cc2ccccc2)CC1 | -6.77% | – | –
27 | CC(C(=O)Nc1ccncc1)(c1ccccc1)c1ccccc1 | 7.96% | – | –
28 | Cc1ccc(OCCC(=O)OCC(=O)Nc2ccc(N3CCOCC3)cc2)cc1 | – | 2.31 µM [falling, partial curve] | –
29 | Cc1ccc(C(=O)COC(=O)CNC(=O)CNC(=O)c2ccc(C)cc2)cc1 | -66.7% | – | 29.1 µM [falling, single point]
30 | COc1ccc(C(=O)/C=C2/C(=O)Nc3ccccc32)cc1 | -37.6% | 20.6 µM [falling, partial curve] | 14.6 µM [falling, single point]
31 | Cc1occc1C(=O)/C(C#N)=C/c1ccc(O)c(Br)c1 | -39% | – | 16.4 µM [falling, single point]
32 | Cc1ccsc1/C=C/C(=O)O | -32.9% | 58 µM [falling, partial curve, poor fit] | –
33 | CC(OC(=O)CCc1cc(C(C)(C)C)c(O)c(C(C)(C)C)c1)C(=O)NC1CC1 (stereo not given) | 54.5% | – | 16.4 µM [rising, partial curve]
34 | Cc1ccc[n+](CC(=O)c2ccc(-c3ccccc3)cc2)c1 | 16.4% | – | 6.51 µM [falling, single point]
35 | CCC1(CC)NC(=O)N(CC(=O)N2CCN(c3ccccc3F)CC2)C1=O | 3.74% | 0.517 µM [rising, full curve] | –
36 | COc1ccccc1C(=O)NC(=S)Nc1cccnc1Cl | 19.2% | – | –
37 | Cc1sc2ncnc(OCC(=O)N3CCN(C(=O)c4ccco4)CC3)c2c1C | 27.5% | – | –
38 | CCOc1cc(C(=O)N2CCC(CC3CC(c4cccc(Br)c4)=NO3)(C(=O)NCC3CCCCC3)CC2)cc(OCC)c1OCC (stereo not given) | – | 4.11 µM [falling, full curve] | –

Reference: PubChem BioAssay AID2685 (National Center for Advancing Translational Sciences (NCATS), 2010)
